Record: PubChem BioAssay AID1671195 (Yale University, 2021)

- Assay: 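Genes whose knockdown alters LDL uptake in liver cancer cells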 (primary screen)
- System: human Huh7 hepatoma cells
- Reagent: siRNA pool against human genes, 18 nM
- Time to read-out: about 2 to 2.5 days of knockdown, then 8 h LDL uptake
- Conditions: DiI-labelled LDL at 30 µg/ml for 8 h, in lipoprotein-deficient serum medium
- Detection: 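Per-cell DiI-LDL intensity by automated imaging; well means scaled to the plate median and given as a robust z-score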
- Direction: robust z-score: higher = more LDL uptake after knockdown
- Call rule: 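a gene counts as active if at least two replicate z-scores exceed ±2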
The deposit covers about 22,000 reagents; this is a part drawn at random. In the full data, about 1,510 (6.9%) are marked active. 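Active includes knockdowns raising or lowering LDL uptake; positive z-scores mean more uptake, negative mean less.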 Unmarked entries are inactive.

CDH3 (GeneID 1001)
- robust z-score, replicate 1: -0.558
- robust z-score, replicate 2: -1.03
- robust z-score, replicate 3: -0.643

DLK2 (GeneID 65989)
- robust z-score, replicate 1: 1.5
- robust z-score, replicate 2: 1.85
- robust z-score, replicate 3: 1.95

PCDHB8 (GeneID 56128)
- robust z-score, replicate 1: -0.421
- robust z-score, replicate 2: -0.371
- robust z-score, replicate 3: -0.663

PIK3C3 (GeneID 5289)
- robust z-score, replicate 1: -0.221
- robust z-score, replicate 2: -0.524
- robust z-score, replicate 3: -0.609

PSMB5 (GeneID 5693)
- robust z-score, replicate 1: 1.31
- robust z-score, replicate 2: 1.53
- robust z-score, replicate 3: 1.6

STATH (GeneID 6779)
- robust z-score, replicate 1: -1.2
- robust z-score, replicate 2: -0.491
- robust z-score, replicate 3: 0.568

PAWR (GeneID 5074)
- robust z-score, replicate 1: -0.28
- robust z-score, replicate 2: -0.815
- robust z-score, replicate 3: 0.253

Continued; the last 2 above are carried over.
STATH (GeneID 6779)
- robust z-score, replicate 1: -1.2
- robust z-score, replicate 2: -0.491
- robust z-score, replicate 3: 0.568

PAWR (GeneID 5074)
- robust z-score, replicate 1: -0.28
- robust z-score, replicate 2: -0.815
- robust z-score, replicate 3: 0.253

VPS51 (GeneID 738)
- robust z-score, replicate 1: 2.33
- robust z-score, replicate 2: 0.513
- robust z-score, replicate 3: 0.926

LOC400876 (retired record) (GeneID 400876)
- robust z-score, replicate 1: -0.791
- robust z-score, replicate 2: -0.856
- robust z-score, replicate 3: -0.965

CDC34 (GeneID 997)
- robust z-score, replicate 1: 1.23
- robust z-score, replicate 2: -0.42
- robust z-score, replicate 3: -0.558

AMOT (GeneID 154796)
- robust z-score, replicate 1: 0.0538
- robust z-score, replicate 2: 0.214
- robust z-score, replicate 3: 0.157

SCAMP1 (GeneID 9522)
- robust z-score, replicate 1: 1.64
- robust z-score, replicate 2: 2.62
- robust z-score, replicate 3: 1.86
